Data as given in paper PMC9792576.
These are yes or no findings as the source states them, for the method shown. Binding seen in cells or lysates may run through a third protein. Some binding calls cover weakened binding; strength is not graded here. For part of these data: Where a sequence is shown, tags or fusion partners need not be part of it. One block for each molecule: values may come before it.

Protein sequences, listed by entry. Tags and fused reporters are not part of them.
UniProt B2RWS6: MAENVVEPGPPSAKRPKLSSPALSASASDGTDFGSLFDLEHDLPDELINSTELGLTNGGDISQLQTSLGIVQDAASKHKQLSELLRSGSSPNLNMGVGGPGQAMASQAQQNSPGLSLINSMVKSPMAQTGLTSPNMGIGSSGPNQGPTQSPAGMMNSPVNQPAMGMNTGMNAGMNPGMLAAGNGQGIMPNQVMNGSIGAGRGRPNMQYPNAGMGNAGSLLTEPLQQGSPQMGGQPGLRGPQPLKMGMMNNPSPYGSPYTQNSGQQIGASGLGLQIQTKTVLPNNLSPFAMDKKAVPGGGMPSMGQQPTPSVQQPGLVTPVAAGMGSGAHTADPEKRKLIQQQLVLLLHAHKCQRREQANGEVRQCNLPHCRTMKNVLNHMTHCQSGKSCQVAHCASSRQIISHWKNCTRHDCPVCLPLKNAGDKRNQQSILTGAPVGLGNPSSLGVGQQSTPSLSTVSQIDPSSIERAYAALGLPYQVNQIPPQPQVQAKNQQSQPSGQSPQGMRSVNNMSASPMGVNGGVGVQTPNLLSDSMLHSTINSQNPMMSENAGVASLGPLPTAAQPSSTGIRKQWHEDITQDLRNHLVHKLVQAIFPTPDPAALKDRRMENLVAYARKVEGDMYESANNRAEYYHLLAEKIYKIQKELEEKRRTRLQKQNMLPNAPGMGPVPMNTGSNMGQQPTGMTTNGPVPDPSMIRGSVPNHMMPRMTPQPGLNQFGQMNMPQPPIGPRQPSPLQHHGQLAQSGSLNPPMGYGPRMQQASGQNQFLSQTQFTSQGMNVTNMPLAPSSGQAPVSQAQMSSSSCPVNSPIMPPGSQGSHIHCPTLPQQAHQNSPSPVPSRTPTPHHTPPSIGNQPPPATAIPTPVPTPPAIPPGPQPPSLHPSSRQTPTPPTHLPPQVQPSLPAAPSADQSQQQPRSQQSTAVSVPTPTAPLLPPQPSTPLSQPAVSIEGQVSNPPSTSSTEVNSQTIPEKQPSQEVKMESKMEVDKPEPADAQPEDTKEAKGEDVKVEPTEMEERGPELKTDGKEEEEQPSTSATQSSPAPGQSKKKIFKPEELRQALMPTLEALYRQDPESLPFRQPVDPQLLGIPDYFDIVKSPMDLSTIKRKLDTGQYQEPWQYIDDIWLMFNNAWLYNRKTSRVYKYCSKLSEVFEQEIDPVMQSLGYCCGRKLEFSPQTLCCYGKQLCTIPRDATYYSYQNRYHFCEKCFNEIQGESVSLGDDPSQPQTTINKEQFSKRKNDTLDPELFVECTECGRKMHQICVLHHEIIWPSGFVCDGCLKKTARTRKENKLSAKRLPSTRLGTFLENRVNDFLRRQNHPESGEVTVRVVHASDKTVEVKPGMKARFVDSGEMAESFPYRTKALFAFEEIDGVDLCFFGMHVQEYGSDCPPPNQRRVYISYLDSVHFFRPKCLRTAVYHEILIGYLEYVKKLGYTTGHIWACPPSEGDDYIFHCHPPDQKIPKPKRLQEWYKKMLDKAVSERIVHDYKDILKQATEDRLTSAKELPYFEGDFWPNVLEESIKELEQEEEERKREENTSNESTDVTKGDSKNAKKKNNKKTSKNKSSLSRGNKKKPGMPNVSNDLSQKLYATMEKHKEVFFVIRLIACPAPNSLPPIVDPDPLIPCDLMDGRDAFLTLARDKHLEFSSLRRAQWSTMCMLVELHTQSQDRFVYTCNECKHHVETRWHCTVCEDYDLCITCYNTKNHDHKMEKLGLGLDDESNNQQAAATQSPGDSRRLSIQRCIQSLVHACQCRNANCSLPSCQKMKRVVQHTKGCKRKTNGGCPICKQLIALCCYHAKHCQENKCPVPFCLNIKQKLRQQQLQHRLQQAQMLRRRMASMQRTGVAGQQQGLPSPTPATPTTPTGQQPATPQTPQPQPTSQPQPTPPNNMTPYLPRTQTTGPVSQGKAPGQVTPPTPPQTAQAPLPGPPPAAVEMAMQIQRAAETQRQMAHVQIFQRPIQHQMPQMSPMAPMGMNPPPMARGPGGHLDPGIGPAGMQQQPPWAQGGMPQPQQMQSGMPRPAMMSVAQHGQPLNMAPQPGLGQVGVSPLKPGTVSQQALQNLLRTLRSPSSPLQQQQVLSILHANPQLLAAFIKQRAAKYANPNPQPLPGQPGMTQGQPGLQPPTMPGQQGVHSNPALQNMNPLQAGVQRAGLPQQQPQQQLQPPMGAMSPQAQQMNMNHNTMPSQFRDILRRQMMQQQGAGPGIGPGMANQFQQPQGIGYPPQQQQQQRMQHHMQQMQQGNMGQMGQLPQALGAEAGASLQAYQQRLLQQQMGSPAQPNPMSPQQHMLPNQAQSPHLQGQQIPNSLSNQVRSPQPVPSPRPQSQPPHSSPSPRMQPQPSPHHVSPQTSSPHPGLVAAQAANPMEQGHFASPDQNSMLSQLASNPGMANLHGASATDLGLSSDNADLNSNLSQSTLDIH
UniProt Q09472: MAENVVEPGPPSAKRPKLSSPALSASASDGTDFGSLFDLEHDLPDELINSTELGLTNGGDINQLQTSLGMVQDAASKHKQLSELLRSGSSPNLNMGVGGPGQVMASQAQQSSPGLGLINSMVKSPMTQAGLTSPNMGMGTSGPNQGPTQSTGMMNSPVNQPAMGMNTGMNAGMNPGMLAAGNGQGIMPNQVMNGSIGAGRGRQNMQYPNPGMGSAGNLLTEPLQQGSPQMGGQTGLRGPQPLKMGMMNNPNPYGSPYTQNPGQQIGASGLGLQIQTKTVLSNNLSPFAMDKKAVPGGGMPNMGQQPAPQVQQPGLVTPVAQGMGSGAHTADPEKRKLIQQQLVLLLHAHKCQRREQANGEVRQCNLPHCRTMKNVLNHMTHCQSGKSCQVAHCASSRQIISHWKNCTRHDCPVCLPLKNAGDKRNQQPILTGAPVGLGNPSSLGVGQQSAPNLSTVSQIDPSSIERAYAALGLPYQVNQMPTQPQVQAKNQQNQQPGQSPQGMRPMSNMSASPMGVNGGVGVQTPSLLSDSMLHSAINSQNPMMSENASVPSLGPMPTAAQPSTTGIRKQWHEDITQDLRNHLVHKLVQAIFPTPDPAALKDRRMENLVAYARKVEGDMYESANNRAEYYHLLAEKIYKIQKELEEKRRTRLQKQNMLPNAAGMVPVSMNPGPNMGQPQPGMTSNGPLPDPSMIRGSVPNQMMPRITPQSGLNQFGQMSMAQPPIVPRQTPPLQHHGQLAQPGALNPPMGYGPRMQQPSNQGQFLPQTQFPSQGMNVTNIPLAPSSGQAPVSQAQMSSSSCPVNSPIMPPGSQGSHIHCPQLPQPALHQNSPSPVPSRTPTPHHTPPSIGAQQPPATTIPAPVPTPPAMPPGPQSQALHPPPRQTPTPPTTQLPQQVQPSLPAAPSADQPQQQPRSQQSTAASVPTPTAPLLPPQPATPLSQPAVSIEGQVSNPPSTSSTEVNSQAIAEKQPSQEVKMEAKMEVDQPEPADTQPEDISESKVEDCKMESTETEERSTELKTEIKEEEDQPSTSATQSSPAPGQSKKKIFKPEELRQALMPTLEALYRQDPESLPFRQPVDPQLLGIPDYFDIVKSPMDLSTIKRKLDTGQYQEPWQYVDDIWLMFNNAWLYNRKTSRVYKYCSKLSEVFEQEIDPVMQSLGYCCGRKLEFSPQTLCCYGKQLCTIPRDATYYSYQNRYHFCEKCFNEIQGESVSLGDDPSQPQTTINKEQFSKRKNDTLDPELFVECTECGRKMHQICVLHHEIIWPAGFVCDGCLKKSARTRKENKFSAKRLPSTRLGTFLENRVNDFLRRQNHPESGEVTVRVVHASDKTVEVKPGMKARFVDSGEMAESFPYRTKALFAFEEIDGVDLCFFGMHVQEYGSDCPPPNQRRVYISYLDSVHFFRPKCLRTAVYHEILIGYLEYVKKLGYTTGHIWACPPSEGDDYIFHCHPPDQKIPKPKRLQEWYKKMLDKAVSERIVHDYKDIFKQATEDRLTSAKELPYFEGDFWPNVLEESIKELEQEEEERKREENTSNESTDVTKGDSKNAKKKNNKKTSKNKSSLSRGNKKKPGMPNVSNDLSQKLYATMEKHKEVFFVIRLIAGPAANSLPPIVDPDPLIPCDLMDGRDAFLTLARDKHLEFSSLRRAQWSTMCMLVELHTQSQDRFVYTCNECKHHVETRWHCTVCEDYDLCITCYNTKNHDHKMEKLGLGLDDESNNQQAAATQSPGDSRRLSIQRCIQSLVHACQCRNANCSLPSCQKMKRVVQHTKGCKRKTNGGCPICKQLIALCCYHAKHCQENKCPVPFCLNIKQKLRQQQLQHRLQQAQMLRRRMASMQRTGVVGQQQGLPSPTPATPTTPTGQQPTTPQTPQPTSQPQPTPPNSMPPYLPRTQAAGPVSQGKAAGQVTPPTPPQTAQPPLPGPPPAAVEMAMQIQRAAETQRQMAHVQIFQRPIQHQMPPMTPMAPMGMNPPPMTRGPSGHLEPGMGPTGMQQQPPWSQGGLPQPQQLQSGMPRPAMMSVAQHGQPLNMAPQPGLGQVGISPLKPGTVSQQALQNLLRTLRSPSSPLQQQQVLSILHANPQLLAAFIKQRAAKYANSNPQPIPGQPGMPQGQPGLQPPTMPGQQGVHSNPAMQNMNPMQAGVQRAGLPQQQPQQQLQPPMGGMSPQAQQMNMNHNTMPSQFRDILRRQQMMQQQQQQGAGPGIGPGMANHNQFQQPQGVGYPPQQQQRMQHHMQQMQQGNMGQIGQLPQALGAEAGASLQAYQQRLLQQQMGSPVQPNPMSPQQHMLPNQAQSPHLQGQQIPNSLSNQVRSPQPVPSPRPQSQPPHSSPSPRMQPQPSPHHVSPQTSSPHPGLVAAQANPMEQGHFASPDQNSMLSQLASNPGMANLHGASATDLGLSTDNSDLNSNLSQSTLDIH

Key:
Flag-DLD = molecular target: T1, Flag-DLD (UniProt O08749); experiment: co-IP; lysates of HEK293 cells transfected with HA-P300 and Flag-DLD (RIPA buffer with protease inhibitors); reciprocal immunoprecipitation, overnight at 4 °C, protein-G/A agarose
T1 sequence: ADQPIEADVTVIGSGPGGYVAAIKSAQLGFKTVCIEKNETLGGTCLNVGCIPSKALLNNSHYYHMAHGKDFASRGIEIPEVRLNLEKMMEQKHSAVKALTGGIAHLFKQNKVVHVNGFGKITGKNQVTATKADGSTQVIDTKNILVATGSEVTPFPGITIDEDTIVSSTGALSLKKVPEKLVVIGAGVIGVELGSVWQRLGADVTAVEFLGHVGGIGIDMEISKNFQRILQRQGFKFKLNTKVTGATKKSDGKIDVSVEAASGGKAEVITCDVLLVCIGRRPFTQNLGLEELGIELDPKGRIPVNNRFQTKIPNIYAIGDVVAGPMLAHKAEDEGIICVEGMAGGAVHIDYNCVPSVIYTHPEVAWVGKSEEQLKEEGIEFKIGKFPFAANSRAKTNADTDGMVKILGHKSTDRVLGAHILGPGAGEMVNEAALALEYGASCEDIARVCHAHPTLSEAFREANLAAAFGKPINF

[1] = molecular target: P300, endogenous in mouse adult cardiomyocytes (mouse (endogenous in adult cardiomyocytes)) (UniProt B2RWS6); experiment: co-IP; lysates of mouse adult cardiomyocytes (RIPA buffer with protease inhibitors); immunoprecipitated with anti-DLD and probed with anti-P300, and inversely; overnight at 4 °C, protein-G/A agarose
HA-P300 = HA-P300 (UniProt Q09472); experiment: co-IP; lysates of HEK293 cells transfected with HA-P300 and Flag-DLD (RIPA buffer with protease inhibitors); reciprocal immunoprecipitation, overnight at 4 °C, protein-G/A agarose

binding (Flag-DLD): binds
Molecule: HA-P300 (from UniProt Q09472 1-2414)

binding [1]: binds
B1: Dihydrolipoamide dehydrogenase (DLD), endogenous in mouse adult cardiomyocytes (protein, UniProt O08749 36-509)
chain: ADQPIEADVTVIGSGPGGYVAAIKSAQLGFKTVCIEKNETLGGTCLNVGCIPSKALLNNSHYYHMAHGKDFASRGIEIPEVRLNLEKMMEQKHSAVKALTGGIAHLFKQNKVVHVNGFGKITGKNQVTATKADGSTQVIDTKNILVATGSEVTPFPGITIDEDTIVSSTGALSLKKVPEKLVVIGAGVIGVELGSVWQRLGADVTAVEFLGHVGGIGIDMEISKNFQRILQRQGFKFKLNTKVTGATKKSDGKIDVSVEAASGGKAEVITCDVLLVCIGRRPFTQNLGLEELGIELDPKGRIPVNNRFQTKIPNIYAIGDVVAGPMLAHKAEDEGIICVEGMAGGAVHIDYNCVPSVIYTHPEVAWVGKSEEQLKEEGIEFKIGKFPFAANSRAKTNADTDGMVKILGHKSTDRVLGAHILGPGAGEMVNEAALALEYGASCEDIARVCHAHPTLSEAFREANLAAAFGKPINF

binding (HA-P300): binds
B2: Flag-DLD (protein, UniProt O08749 36-509)
chain: ADQPIEADVTVIGSGPGGYVAAIKSAQLGFKTVCIEKNETLGGTCLNVGCIPSKALLNNSHYYHMAHGKDFASRGIEIPEVRLNLEKMMEQKHSAVKALTGGIAHLFKQNKVVHVNGFGKITGKNQVTATKADGSTQVIDTKNILVATGSEVTPFPGITIDEDTIVSSTGALSLKKVPEKLVVIGAGVIGVELGSVWQRLGADVTAVEFLGHVGGIGIDMEISKNFQRILQRQGFKFKLNTKVTGATKKSDGKIDVSVEAASGGKAEVITCDVLLVCIGRRPFTQNLGLEELGIELDPKGRIPVNNRFQTKIPNIYAIGDVVAGPMLAHKAEDEGIICVEGMAGGAVHIDYNCVPSVIYTHPEVAWVGKSEEQLKEEGIEFKIGKFPFAANSRAKTNADTDGMVKILGHKSTDRVLGAHILGPGAGEMVNEAALALEYGASCEDIARVCHAHPTLSEAFREANLAAAFGKPINF
